Measurements reported in patent publication US6838436B1, “Inhibitors of proteasomal activity for stimulating bone growth” (Osteoscreen Inc., priority 1998, dated 2005).
For at least one compound, name, drawing or mass did not settle the structure.

Legend:
neonatal mouse calvaria = test: Neonatal mouse calvaria assay (in vitro / ex vivo) for bone formation; format: cell-based, ICR Swiss white mouse
Method: An assay for bone resorption or bone formation is similar to that described by Gowen M. & Mundy G., J Immunol (1986) 136:2478-82. Briefly, four days after birth, the front and parietal bones of ICR Swiss white mouse pups are removed by microdissection and split along the sagittal suture. In an assay for resorption, the bones are incubated in BGJb medium (Irvine Scientific, Santa Ana, Calif.) plus 0.02% (or lower concentration) β-methylcyclodextrin, wherein the medium also contains test or control substances. […]
Following this, the bones are removed from the incubation media and fixed in 10% buffered formalin for 24-48 hours, decalcified in 14% EDTA for 1 week, processed through graded alcohols; and embedded in paraffin wax. […] Bone changes are measured on sections cut 200 μm apart. […]
Selected compounds and appropriate controls were assayed in vitro (ex vivo) for bone formation activity (described above in “Techniques for Neonatal Mouse Calvaria Assay (in vitro)). […] Measurements were determined using either a 10- or 20-fold objective with a standard point counting eyepiece graticule.
New bone formation was determined (using a 10× objective) by measuring the new bone area formed in one field in 3 representative sections of each bone (4 bones per group). […] Both total bone and old bone area were measured. Data were expressed as new bone area in μm^2.
Osteoblast numbers are determined by point counting. […]

mouse BMP2 promoter = test: High throughput screen (ABA assay): BMP2 promoter-luciferase reporter in 2T3-BMP-2-LUC osteoblast cells; format: cell-based
Description: 1995, the entire contents of which are incorporated herein by reference. This assay is also described as a portion of a study of immortalized murine osteoblasts (derived from a mouse expressing a transgene composed of a BMP2 promoter driving expression of T-antigen) in Ghosh-Choudhery, N., et al., Endocrinology (1996) 137:331-39. In this study, the immortalized cells were stably transfected with a plasmid containing a luciferase reporter gene driven by a mouse BMP2 promoter (−2736/114 bp), and responded in a dose-dependent manner to recombinant human BMP2.
Briefly, the assay utilizes cells transformed permanently or transiently with constructs in which the promoter of a bone morphogenetic protein, specifically BMP2 or BMP4, is coupled to a reporter gene, typically luciferase. These transformed cells are then evaluated for the production of the reporter gene product; compounds that activate the BMP promoter will drive production of the reporter protein, which can be readily assayed. […]
The treated cells were incubated for 24 hours at 37° C. and 5% CO2. […] Luminescence was measured on an automated 96-well luminometer, and was expressed as either picograms of luciferase activity per well or as picograms of luciferase activity per microgram of protein. […]

In the case of `Cn1cnc2c(NCc3ccccc3)nc(NCCO)nc21` [olomoucine], the “new bone formation in the in vitro calvarial assay” value (neonatal mouse calvaria) is reported as “appeared negative” and the “response in the high throughput luciferase screen” value (mouse BMP2 promoter) is reported as “do not give promising responses”.
